From patent US6034058A (priority 1998, dated 2000) come the findings set out here.

The data set is described as follows: general procedure: solution-phase peptide synthesis; DCC (with NMM or DMAP).

Substance L-glutaminyl-L-alaninyl-didemnin A displayed a step yield (late stage modification step, cyclic, sequence written open) of 87%.
“N-Benzyloxycarbonyl-L-glutaminyl-L-[alaninyl^9 ]didemnin B” registered a step yield (coupling step) of 62%.
In the case of “N-Benzyloxycarbonyl-L-glutaminyl-L-alaninyl-didemnin A”, the step yield (coupling step) was 60%.
On the same count and under the same terms, with “N-Benzyloxycarbonyl-L-glutaminyl-didemnin A” the figure was 65%; with “bis-[(benzyloxycarbonyl)glutaminyl]-L-[Alaninyl^9 ]-didemnin B”, 20%.
didemnin M came in with a step yield (late stage modification step) of 90%.
